Measured values: PubChem BioAssay AID504444 (National Center for Advancing Translational Sciences (NCATS), 2011)
The whole screen tested about 360,000 compounds, of which about 7,500 (2.1%) were called active. The shares of active, inactive and inconclusive entries below differ from those in the screen. The call rests on the fitted dose curve; in most records, active means well fitted inhibition curve with a large enough effect; inconclusive means small, poorly fitted or top-dose-only effect, or effect the other way; inactive means flat fitted curve, though single readings scatter. Potencies of inconclusive entries are doubtful fits and often do not repeat.

Experiment: Nrf2 qHTS screen for inhibitors; further: nearly all actives have a fitted effect of over 60% in size
Details: A549 ARE-Fluc reporter, luciferase luminescence, 18-24 h; series mostly up to 46 µM
How it was run: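 Reporter: ARE-Fluc in A549. Exposure: 18-24 h, 37 °C, 5% CO2, 5% FBS OPTI-MEM. Readouts: fluorescent cytotoxicity (CellTiter-Fluor), then luminescent Nrf2 signal after BugLite.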
Potency means the concentration at half of the fitted maximal effect.

| SMILES | Potency |
| --- | --- |
| CCOc1cccc(=O)c2c(C)n(-c3ccc(C(=O)O)cc3)c(C)c12 | inactive |
| COc1ccc(N2C(N)=C(C#N)C(c3ccsc3)C3=C2CCCC3=O)c(OC)c1 (configuration not stated) | inconclusive: 8.2 µM [falling, partial curve, poor fit] |
| N=c1c2c(ccn1CCCCc1ccccc1)Oc1ccc3ccccc3c1C2c1ccccc1 (configuration not stated) | inconclusive: 6.51 µM [falling, single point] |
| Cc1onc(-c2ccccc2)c1C(=O)N/N=C/c1cc(Br)c(Br)o1 | inconclusive: 29.1 µM [falling, single point] |
| CN(C)CCNC(=O)c1ccc(-n2c(-c3ccccc3)cc3c2CCCC3)cc1 | active: 23.1 µM |
| C/C(=N\NC(=O)C(c1ccccc1)c1ccccc1)c1ccccn1 | active: 11.6 µM |
| COc1ccccc1C(=O)N(C)c1nnc(-c2ccccc2)s1 | inactive |
| Cc1cc2cc(CNS(=O)(=O)c3ccccc3)ccc2n1C | inactive |
| COc1ccc(C(=O)Nc2ccc(C(=O)N3CCCC3)cc2)cc1[N+](=O)[O-] | inconclusive: 29.1 µM [falling, partial curve, poor fit] |
| CCOc1ccc(-c2cc(N)n(S(=O)(=O)c3cccc4nsnc34)n2)cc1 | inconclusive: 8.2 µM [falling, single point] |
| COc1ccc(/C=N/NC(=O)c2cccc([N+](=O)[O-])c2)c2ccccc12 | inconclusive: 25.9 µM [falling, partial curve, poor fit] |
| COc1ccc(-c2cn3nc(N4CCC(C(=O)NCc5ccccc5F)CC4)sc3n2)cc1 | inconclusive: 1.16 µM [activator, single point] |
| Cc1ccc(NCc2cccn2-c2nnc(N3CCC(C(=O)NC(C)C)CC3)s2)cc1 | inconclusive: 2.59 µM [activator, single point] |
| CCc1ccc(N2CC(C(=O)NCc3ccco3)CC2=O)cc1 (configuration not stated) | inconclusive: 25.9 µM [activator, single point] |
| COCCn1c(SCc2nc3ccccc3s2)nc2ccccc21 | inconclusive: 2.59 µM [activator, partial curve, poor fit] |
| Cc1onc(-c2ccccc2)c1C(=O)OCC(=O)Nc1cccc(Cl)c1 | inconclusive: 14.6 µM [falling, partial curve, poor fit] |
| Cc1ccccc1-n1nc(C)c2cc(C(=O)N3CCN(S(=O)(=O)c4ccc(Cl)cc4)CC3)sc21 | active: 13 µM |
| COc1ccc(OC)c(NC(=O)c2cc(-c3cc(Cl)ccc3O)n[nH]2)c1 | inconclusive: 29.1 µM [falling, single point] |
| O=C(COc1ccc2c(c1)OCO2)Nc1ccc(Cl)cn1 | inconclusive: 29.1 µM [activator, single point] |
| c1cnc(SCCOc2ccc3c(c2)CCC3)nc1 | inconclusive: 29.1 µM [activator, single point] |
| CN(CCO)c1c2c(nc3cc(-c4cccc(F)c4)nn13)CCCC2 | inconclusive: 2.91 µM [activator, full curve] |
| c1ccc2c(c1)ncn2CCCCOc1ccc2c(c1)CCC2 | inconclusive: 8.2 µM [falling, partial curve, poor fit] |
| COC(=O)C(Cc1c[nH]c2ccccc12)NC(=O)COc1ccc(Cl)cc1Cl (configuration not stated) | inactive |

Nothing new here: entries from further up.

| SMILES | Potency |
| --- | --- |
| CN(CCO)c1c2c(nc3cc(-c4cccc(F)c4)nn13)CCCC2 | inconclusive: 2.91 µM [activator, full curve] |
| c1ccc2c(c1)ncn2CCCCOc1ccc2c(c1)CCC2 | inconclusive: 8.2 µM [falling, partial curve, poor fit] |

Additional entries.

| SMILES | Potency |
| --- | --- |
| Cc1nc(-c2ccc(NC(=O)c3ccccc3C)cc2)cs1 | inconclusive: 2.31 µM [activator, full curve] |
| Cc1cc(NC(=O)CCC(=O)N(c2ccccc2C)C(C(=O)NC2CCCC2)c2ccccc2)no1 (configuration not stated) | inactive |
| COc1cccc(NC(=O)N2CCC(n3nnc4ccccc43)CC2)c1 | inconclusive: 16.4 µM [falling, partial curve, poor fit] |
| CCN(c1cc(C)cc(C)c1)S(=O)(=O)c1nnc(NC(=O)c2cccs2)s1 | inconclusive: 29.1 µM [falling, single point] |
| CCOc1ccc(-n2c(CCC(=O)O)ccc2-c2ccc(Br)cc2)cc1 | inactive |
| C=C(C)c1cccc(C(C)(C)NC(=O)N(Cc2ccccc2)Cc2ccco2)c1 | inconclusive: 18.4 µM [falling, partial curve, poor fit] |
| CCOC(=O)c1sc2nc(C)[nH]c(=O)c2c1C | inconclusive: 20.6 µM [falling, single point] |
| CC(C)(C)c1ccc(-c2n[nH]c(=S)n2-c2ccccc2)cc1 | inactive |
| O=C(CSc1nnnn1C1CCCC1)Nc1ccc2c(c1)OCO2 | inconclusive: 0.651 µM [activator, full curve, poor fit] |
| O=C(CC1C(=O)NCCN1Cc1ccc(-c2ccccc2)cc1)NC1CCC1 (configuration not stated) | inconclusive: 2.91 µM [falling, partial curve, poor fit] |
| Cc1cc(NC(=O)c2ccc(NC(=O)C3CC3)cc2)no1 | inconclusive: 8.2 µM [activator, partial curve, poor fit] |
| CC(C(=O)NCc1ccco1)c1ccc([N+](=O)[O-])cc1 (configuration not stated) | inconclusive: 29.1 µM [falling, single point] |
| CC(/C=C1\SC(=S)N(CCC(=O)Nc2ccc(O)cc2)C1=O)=C\c1ccccc1 | inconclusive: 25.9 µM [falling, single point] |
| COc1cccc(/C=N/NC(=O)c2ccc(OCc3cccc(Br)c3)cc2)c1 | inconclusive: 29.1 µM [falling, single point] |
| Cc1nc2sccn2c(=O)c1S(=O)(=O)NCC(C)c1ccccc1 (configuration not stated) | inconclusive: 4.61 µM [falling, single point] |
| CC(=O)Nc1ccc(S(=O)(=O)NCCC(=O)N2CCC(Cc3ccccc3)CC2)cc1 | inconclusive: 1.3 µM [falling, partial curve, poor fit] |
| CCCOc1ccc(-c2nnn(CC(=O)N3CCCCC3)n2)cc1 | inconclusive: 29.1 µM [falling, single point] |
| C(=N\C(/N=C/c1ccco1)c1ccco1)/c1ccco1 | inactive |
| Cc1ccc(-c2nc3cccnc3s2)cc1NC(=O)C(C)C | inconclusive: 11.6 µM [activator, partial curve] |
| Cc1ccc(NS(=O)(=O)c2ccc3c(c2)CCC(C)(C)O3)cc1C | active: 23.1 µM |
| Cc1ccc(-c2ccc(=O)n(Cc3cc(C)ccc3C)n2)cc1 | inconclusive: 0.103 µM [activator, partial curve] |
| CC1=Nc2cc(C(=O)NCCc3ccc(Cl)cc3)ccc2Sc2ccc(C)cc21 | active: 5.17 µM |
| C=C(C)CSc1nnc(-c2ccccc2)n1N | inconclusive: 11.6 µM [activator, partial curve] |

| SMILES | Potency |
| --- | --- |
| CN(Cc1ccccc1)C(=O)c1ccc(NC(=O)Cc2ccc(NC(=O)C3CCCN(C(=O)c4ccccc4)C3)cc2)cc1 (configuration not stated) | inconclusive: 29.1 µM [falling, single point] |
| Cc1oc2ccc(O)c(CN(C)Cc3ccccc3)c2c1C(=O)Nc1cccc(C(F)(F)F)c1 | inconclusive: 3.66 µM [activator, partial curve] |
| Cc1ccc(C)c(NC(=O)CC2Sc3ccccc3NC2=O)c1 (configuration not stated) | inconclusive: 32.6 µM [falling, single point] |
| COc1ccc(C(=O)N/N=C/c2cccc3cccnc23)cc1 | inconclusive: 9.2 µM [falling, partial curve, poor fit] |
| COc1ccc(-c2n[nH]c(=S)n2CC(C)C)cc1 | inactive |
| CCc1cc(C(=O)Nc2cc(S(=O)(=O)N(CC)CC)ccc2N2CCOCC2)sc1C | inactive |
| COCCNC(=O)C(c1ccc(C)o1)N(C(=O)c1snc(C(N)=O)c1N)c1cc(C)cc(C)c1 (configuration not stated) | inconclusive: 29.1 µM [falling, single point] |
| O=C(CSc1nc(-c2ccccc2)no1)N1CCN(c2ccccc2F)CC1 | inconclusive: 18.4 µM [activator, single point] |
| CCC(C)[C@@H](N)C(=O)N/N=C/c1cccc2nccnc12 (some centres not stated) | inactive |
| CCSc1sccc1C1C(C#N)=C(N)N(c2cccnc2)C2=C1C(=O)CC(C)(C)C2 (configuration not stated) | inactive |
| CCOC(=O)c1cnc(SC)nc1Oc1cccc(NS(=O)(=O)c2ccc(Cl)cc2)c1 | inactive |
| CN(CCc1ccccc1)C(=O)c1cccc(NC(=O)Cc2cccc(NC(=O)C3CCN(C(=O)C4CCCCC4)CC3)c2)c1 | inconclusive: 13 µM [falling, partial curve, poor fit] |
| O=C(c1cc2ccccc2oc1=O)N1CCN(c2ncccn2)CC1 | inconclusive: 23.1 µM [activator, partial curve, poor fit] |
| CC(C)(C)OC(=O)NCCCC[C@H](NC(=O)c1nc[nH]c1C(=O)NC(c1ccccc1)c1ccccc1)C(=O)OC(C)(C)C | active: 3.66 µM |
| O=C(CSc1cccs1)Nc1cccc2ccccc12 | inconclusive: 23.1 µM [activator, partial curve] |
| O=C(NC1CCCCC1)C(c1cccs1)N(Cc1cccs1)C(=O)c1ccco1 (configuration not stated) | inconclusive: 25.9 µM [falling, single point] |
| Cc1cc(Nc2cc(Cl)nc(Sc3ccc(NC(=O)C4CC4)cc3)n2)n[nH]1 | inconclusive: 29.1 µM [activator, single point] |
| CC12CCC(C)(c3nc4ccccc4nc31)C2(C)C | inactive |
| CN(C)C(=O)CSc1cnc2ccccc2n1 | inconclusive: 29.1 µM [activator, single point] |
| Cn1c(SCC(=O)N2CCCc3ccccc32)nc2ccccc2c1=O | active: 18.4 µM |
| CC(C)(C)c1ccc(/C=C/C(=O)N2CCCCC2)cc1 | inconclusive: 6.51 µM [activator, partial curve] |
